# Results: the supplement of paper PMC12819154, “High-throughput peptide-centric local stability assay extends protein–ligand identification to membrane proteins, tissues and bacteria” (Nature Structural & Molecular Biology, 2025)
# Protein sequences, listed by entry. Tags and fused reporters are not part of them. Lines headed by an entry give the natural chain unless they say otherwise; changes in a name come on top.
# UniProt Q9D8Y0: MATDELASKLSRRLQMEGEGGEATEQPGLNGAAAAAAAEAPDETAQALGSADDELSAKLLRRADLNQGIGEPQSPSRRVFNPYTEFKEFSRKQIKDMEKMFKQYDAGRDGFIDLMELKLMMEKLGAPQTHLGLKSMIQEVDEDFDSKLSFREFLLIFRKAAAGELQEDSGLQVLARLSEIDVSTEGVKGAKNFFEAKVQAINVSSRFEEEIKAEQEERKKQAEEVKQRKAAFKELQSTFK
# UniProt Q9D1A2: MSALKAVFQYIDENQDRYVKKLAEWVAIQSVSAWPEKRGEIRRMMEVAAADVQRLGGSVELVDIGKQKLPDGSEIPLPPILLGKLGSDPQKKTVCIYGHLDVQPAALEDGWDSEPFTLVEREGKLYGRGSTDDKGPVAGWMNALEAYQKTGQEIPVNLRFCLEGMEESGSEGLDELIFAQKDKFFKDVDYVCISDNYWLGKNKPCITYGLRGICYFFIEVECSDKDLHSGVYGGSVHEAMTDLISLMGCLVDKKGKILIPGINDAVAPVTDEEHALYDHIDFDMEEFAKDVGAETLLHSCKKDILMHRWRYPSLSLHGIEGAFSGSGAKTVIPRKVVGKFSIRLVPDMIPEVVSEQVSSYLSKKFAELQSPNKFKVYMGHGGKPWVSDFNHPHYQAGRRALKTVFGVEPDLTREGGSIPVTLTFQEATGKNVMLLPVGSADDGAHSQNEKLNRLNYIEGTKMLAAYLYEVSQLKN
# UniProt Q9D219: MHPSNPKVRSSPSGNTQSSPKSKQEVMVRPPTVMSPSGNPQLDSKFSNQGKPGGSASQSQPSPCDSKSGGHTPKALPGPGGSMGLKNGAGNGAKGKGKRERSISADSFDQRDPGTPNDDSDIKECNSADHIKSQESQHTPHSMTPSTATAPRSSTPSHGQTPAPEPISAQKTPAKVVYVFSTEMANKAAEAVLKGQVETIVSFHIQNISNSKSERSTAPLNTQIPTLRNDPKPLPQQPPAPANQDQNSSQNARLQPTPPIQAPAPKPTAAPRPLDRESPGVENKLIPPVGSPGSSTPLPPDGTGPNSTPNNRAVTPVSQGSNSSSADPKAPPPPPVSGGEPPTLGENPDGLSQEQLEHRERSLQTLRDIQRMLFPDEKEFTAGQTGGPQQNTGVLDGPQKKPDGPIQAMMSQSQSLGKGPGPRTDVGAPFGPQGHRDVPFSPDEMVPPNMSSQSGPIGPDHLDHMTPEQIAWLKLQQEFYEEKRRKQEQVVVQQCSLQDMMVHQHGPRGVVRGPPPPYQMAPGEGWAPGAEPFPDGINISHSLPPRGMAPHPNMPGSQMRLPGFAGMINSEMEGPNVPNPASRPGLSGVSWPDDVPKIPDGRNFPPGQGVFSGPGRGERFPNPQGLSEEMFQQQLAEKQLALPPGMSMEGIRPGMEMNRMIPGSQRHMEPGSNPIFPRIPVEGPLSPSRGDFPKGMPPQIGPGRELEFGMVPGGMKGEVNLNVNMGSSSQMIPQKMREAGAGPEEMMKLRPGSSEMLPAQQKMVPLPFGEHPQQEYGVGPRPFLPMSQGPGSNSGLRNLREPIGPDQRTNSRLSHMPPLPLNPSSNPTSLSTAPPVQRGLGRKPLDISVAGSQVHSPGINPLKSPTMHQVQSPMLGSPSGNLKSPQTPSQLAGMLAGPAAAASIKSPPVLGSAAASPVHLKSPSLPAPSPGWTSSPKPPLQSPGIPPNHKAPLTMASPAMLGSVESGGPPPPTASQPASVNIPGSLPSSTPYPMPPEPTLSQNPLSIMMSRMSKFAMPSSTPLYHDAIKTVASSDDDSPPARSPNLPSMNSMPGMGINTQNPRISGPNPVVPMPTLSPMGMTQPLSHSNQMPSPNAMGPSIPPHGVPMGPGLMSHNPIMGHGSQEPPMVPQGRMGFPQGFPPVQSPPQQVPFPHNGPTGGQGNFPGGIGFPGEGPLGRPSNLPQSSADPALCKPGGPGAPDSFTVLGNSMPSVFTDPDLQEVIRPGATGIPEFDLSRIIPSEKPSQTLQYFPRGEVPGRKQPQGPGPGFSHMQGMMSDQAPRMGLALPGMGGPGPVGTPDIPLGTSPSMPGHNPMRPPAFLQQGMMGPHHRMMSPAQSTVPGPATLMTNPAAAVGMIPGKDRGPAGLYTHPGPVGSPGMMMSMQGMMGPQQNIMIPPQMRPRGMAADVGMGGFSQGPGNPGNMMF
# UniProt Q9D1C3: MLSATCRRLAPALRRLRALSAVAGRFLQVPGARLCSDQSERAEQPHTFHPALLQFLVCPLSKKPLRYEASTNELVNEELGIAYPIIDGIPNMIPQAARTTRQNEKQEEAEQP
# UniProt Q9D6R2: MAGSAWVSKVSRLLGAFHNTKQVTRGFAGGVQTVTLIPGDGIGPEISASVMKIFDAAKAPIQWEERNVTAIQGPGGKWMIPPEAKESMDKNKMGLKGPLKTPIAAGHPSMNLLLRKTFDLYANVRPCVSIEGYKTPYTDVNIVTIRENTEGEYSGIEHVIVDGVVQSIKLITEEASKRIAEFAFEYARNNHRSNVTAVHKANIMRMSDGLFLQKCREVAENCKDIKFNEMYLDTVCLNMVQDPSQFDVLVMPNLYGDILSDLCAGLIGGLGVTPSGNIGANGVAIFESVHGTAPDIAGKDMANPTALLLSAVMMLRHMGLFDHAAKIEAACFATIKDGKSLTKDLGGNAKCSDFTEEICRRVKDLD
# UniProt Q9D975: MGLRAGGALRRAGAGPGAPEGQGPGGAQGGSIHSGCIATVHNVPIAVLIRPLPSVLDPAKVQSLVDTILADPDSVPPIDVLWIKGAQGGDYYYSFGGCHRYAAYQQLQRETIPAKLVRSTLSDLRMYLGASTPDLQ
# UniProt Q9D799: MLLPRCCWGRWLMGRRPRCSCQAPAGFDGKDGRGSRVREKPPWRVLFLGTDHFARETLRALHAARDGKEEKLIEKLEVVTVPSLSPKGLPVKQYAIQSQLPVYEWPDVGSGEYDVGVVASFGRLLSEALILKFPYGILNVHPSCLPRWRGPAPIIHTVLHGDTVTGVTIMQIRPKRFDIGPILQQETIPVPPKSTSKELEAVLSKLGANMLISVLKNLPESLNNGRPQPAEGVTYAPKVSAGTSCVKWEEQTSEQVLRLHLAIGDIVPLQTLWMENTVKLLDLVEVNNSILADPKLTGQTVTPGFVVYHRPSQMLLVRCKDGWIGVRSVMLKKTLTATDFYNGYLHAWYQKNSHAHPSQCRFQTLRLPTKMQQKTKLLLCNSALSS
# UniProt Q9D9M5: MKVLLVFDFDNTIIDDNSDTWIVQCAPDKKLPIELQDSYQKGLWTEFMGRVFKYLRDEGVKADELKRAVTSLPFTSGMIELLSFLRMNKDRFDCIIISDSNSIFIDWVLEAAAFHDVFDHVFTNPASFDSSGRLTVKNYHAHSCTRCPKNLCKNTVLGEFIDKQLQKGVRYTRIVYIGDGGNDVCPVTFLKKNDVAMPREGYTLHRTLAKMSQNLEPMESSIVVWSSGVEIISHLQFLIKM
# UniProt Q9D753, whole entry: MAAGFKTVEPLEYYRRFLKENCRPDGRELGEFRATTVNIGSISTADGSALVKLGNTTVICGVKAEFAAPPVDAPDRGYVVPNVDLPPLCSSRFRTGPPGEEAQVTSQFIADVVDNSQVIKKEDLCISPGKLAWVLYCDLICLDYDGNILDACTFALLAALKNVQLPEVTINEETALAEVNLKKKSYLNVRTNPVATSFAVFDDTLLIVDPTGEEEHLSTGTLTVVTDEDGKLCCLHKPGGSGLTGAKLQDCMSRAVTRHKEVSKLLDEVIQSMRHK
# UniProt Q9D6N5: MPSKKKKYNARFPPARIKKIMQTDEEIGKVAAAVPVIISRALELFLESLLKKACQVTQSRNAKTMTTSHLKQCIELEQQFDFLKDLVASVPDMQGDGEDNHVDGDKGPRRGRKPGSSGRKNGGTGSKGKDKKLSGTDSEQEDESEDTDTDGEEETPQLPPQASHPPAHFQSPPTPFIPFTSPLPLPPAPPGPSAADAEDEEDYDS
# UniProt Q9D7V9: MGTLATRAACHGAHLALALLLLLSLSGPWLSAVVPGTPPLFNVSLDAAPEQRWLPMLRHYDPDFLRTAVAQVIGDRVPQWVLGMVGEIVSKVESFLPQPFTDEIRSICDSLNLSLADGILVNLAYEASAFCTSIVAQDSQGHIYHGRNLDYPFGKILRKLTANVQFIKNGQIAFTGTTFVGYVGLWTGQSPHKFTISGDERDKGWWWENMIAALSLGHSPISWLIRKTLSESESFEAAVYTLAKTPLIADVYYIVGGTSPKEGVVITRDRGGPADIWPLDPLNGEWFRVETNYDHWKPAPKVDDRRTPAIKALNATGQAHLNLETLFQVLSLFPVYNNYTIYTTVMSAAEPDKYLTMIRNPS
# UniProt Q9DA19, whole entry: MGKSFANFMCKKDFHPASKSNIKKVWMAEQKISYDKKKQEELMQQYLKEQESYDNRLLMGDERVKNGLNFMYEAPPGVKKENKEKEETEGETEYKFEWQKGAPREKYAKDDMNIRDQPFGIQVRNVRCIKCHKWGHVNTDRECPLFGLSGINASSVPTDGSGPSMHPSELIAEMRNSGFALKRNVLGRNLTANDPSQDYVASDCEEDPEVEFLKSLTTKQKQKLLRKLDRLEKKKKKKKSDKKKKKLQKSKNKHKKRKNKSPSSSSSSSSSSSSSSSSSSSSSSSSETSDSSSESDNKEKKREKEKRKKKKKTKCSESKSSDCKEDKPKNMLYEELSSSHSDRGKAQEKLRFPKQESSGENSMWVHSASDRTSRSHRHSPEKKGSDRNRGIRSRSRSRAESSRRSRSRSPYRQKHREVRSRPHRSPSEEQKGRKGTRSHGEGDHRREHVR
# UniProt Q9D8C3: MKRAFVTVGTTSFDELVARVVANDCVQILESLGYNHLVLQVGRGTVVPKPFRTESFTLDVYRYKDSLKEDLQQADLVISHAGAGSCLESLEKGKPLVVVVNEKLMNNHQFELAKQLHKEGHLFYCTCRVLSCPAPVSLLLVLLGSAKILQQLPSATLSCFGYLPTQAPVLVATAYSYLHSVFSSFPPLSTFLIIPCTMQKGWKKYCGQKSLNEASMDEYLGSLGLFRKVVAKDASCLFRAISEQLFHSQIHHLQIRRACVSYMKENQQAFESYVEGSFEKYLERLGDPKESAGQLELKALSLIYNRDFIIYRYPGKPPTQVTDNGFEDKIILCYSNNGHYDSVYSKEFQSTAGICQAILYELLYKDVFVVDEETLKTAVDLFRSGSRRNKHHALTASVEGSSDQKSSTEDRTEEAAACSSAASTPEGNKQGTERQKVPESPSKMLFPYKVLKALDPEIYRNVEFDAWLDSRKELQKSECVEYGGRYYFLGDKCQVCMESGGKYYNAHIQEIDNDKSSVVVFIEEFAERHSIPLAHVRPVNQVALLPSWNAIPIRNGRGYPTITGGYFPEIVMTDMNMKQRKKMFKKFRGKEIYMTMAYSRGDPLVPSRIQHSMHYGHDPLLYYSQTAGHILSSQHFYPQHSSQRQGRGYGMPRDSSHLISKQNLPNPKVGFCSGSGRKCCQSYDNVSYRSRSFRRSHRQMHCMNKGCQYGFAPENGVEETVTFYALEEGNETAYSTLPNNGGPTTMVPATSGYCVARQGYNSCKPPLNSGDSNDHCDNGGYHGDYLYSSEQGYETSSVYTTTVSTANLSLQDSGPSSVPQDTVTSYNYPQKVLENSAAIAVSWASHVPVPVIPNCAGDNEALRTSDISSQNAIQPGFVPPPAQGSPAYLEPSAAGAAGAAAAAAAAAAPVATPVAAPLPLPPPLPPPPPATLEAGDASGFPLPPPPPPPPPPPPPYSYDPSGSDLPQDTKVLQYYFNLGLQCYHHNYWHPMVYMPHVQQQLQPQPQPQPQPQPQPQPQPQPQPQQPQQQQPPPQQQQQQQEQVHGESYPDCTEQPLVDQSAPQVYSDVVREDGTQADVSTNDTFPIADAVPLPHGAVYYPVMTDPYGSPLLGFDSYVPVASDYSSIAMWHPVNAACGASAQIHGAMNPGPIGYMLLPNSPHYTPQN
# UniProt Q9D820: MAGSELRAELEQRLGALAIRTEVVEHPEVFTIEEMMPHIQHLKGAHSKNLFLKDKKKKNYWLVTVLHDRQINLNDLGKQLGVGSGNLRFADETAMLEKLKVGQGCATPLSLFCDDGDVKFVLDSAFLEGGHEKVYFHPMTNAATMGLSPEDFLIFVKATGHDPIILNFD
# UniProt Q9D162: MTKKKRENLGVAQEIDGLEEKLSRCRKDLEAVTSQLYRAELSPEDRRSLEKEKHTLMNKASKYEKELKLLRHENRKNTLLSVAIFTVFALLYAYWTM
# UniProt Q9DAI4: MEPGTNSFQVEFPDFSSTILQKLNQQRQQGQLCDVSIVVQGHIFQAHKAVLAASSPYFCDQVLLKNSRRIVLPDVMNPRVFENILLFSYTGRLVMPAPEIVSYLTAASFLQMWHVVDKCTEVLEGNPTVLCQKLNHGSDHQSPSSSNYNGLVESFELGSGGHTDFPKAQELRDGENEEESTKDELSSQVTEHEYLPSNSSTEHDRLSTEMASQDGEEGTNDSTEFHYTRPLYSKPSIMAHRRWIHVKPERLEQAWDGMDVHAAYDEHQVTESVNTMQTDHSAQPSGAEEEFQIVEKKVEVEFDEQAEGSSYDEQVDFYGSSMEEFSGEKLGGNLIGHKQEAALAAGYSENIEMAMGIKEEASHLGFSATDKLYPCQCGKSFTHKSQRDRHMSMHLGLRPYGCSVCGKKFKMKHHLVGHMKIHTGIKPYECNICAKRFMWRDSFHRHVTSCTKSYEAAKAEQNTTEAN
# This is one part of the list. Small differences around the control level are noise.
# Compound: CN[C@@H]1C[C@H]2O[C@@](C)([C@@H]1OC)n1c3ccccc3c3c4c(c5c6ccccc6n2c5c31)C(=O)NC4 [staurosporine]
# Assay: log2 fold change of tryptic peptide abundance, ligand vs vehicle (limited proteolysis) (log2 ratio); higher = more trypsin-susceptible (destabilized)
# Settings: ligand concentration: 20 uM; sample: mouse liver crude lysate; replicate design: treated separately
row,Target,log2 fold change
1,"UniProt Q9D479 (peptide sequence: VQENEDNLAVLHAAR, peptide start residue: 320)",-0.512
2,"UniProt Q9D8Y0 (peptide sequence: FEEEIKAEQEER, peptide start residue: 207)",-0.0795
3,"UniProt Q9D1A2 (peptide sequence: FAELQSPNKFK, peptide start residue: 365)",-0.251
4,"UniProt Q9D219 (peptide sequence: TDVGAPFGPQGHR, peptide start residue: 424)",0.212
5,"UniProt Q9D1C3 (peptide sequence: AEQPHTFHPALLQFLVCPLSK, peptide start residue: 42)",-0.135
6,"UniProt Q9D6R2 (peptide sequence: MSDGLFLQK, peptide start residue: 206)",-0.111
7,"UniProt Q9D8H7 (peptide sequence: QKTDALPMQK, peptide start residue: 496)",-0.31
8,"UniProt Q9D883 (peptide sequence: GGFCNFMHLKPISR, peptide start residue: 166)",0.127
9,"UniProt Q9D2R6 (peptide sequence: EKLTPAQLQFMR, peptide start residue: 28)",-0.154
10,"UniProt Q9D6T0 (peptide sequence: FTQLDDSVDRVGLITR, peptide start residue: 202)",-0.749
11,"UniProt Q9D4V7 (peptide sequence: AVFYNSVNGIILVHDLTNKK, peptide start residue: 82)",-0.344
12,"UniProt Q9D975 (peptide sequence: GAQGGDYYYSFGGCHR, peptide start residue: 85)",-0.0691
13,"UniProt Q9D2E2 (peptide sequence: YAAEFHAR, peptide start residue: 231)",0.342
14,"UniProt Q9D799 (peptide sequence: LTGQTVTPGFVVYHRPSQMLLVR, peptide start residue: 296)",-0.369
15,"UniProt Q9D6V8 (peptide sequence: EFVPGVKY, peptide start residue: 129)",-0.0202
16,"UniProt Q9D2R0 (peptide sequence: GIPYTLNGK, peptide start residue: 625)",0.158
17,"UniProt Q9D1I2 (peptide sequence: ALYIHAQPLHSHLPSR, peptide start residue: 83)",0.943
18,"UniProt Q9D1M4 (peptide sequence: SLGLKPGNK, peptide start residue: 13)",-0.195

row,Target,log2 fold change
1,"UniProt Q9D9M5 (peptide sequence: LPIELQDSYQK, peptide start residue: 31)",0.141
2,"UniProt Q9D753 (peptide sequence: TVEPLEYYR, peptide start residue: 7)",0.0586
3,"UniProt Q9D6N5 (peptide sequence: VAAAVPVIISR, peptide start residue: 30)",0.149
4,"UniProt Q9D7V9 (peptide sequence: VETNYDHWKPAPK, peptide start residue: 289)",-0.273
5,"UniProt Q9D7F7 (peptide sequence: AALQALKR, peptide start residue: 64)",-0.0335
6,"UniProt Q9DA19 (peptide sequence: EQESYDNR, peptide start residue: 49)",-0.159
7,"UniProt Q9D666 (peptide sequence: LSNLEDVLR, peptide start residue: 570)",-0.42
8,"UniProt Q9D8C3 (peptide sequence: GKPLVVVVNEK, peptide start residue: 93)",0.145
9,"UniProt Q9D820 (peptide sequence: KNYWLVTVLHDR, peptide start residue: 58)",0.24
10,"UniProt Q9D162 (peptide sequence: DLEAVTSQLYR, peptide start residue: 28)",-0.309
11,"UniProt Q9D8S4 (peptide sequence: ALDDISESIK, peptide start residue: 196)",-0.192
12,"UniProt Q9DAI4 (peptide sequence: WIHVKPER, peptide start residue: 243)",0.205
13,"UniProt Q9D198 (peptide sequence: LEWELQEEEKKK, peptide start residue: 74)",-0.2
14,"UniProt Q9D952 (peptide sequence: LEELKDELLALEQK, peptide start residue: 1054)",0.596
15,"UniProt Q9D7S7 (peptide sequence: VVASDKETYELR, peptide start residue: 96)",-0.06
16,"UniProt Q9D8M7 (peptide sequence: VIPNALCGICLK, peptide start residue: 373)",-0.176
17,"UniProt Q9D2R8 (peptide sequence: SPLSEYALR, peptide start residue: 2)",-0.175

# Part of the list above, tab-delimited:
row	Target	log2 fold change
1	UniProt Q9D9M5 (peptide sequence: LPIELQDSYQK, peptide start residue: 31)	0.141
2	UniProt Q9D753 (peptide sequence: TVEPLEYYR, peptide start residue: 7)	0.0586
4	UniProt Q9D7V9 (peptide sequence: VETNYDHWKPAPK, peptide start residue: 289)	-0.273
6	UniProt Q9DA19 (peptide sequence: EQESYDNR, peptide start residue: 49)	-0.159
8	UniProt Q9D8C3 (peptide sequence: GKPLVVVVNEK, peptide start residue: 93)	0.145
11	UniProt Q9D8S4 (peptide sequence: ALDDISESIK, peptide start residue: 196)	-0.192
13	UniProt Q9D198 (peptide sequence: LEWELQEEEKKK, peptide start residue: 74)	-0.2
14	UniProt Q9D952 (peptide sequence: LEELKDELLALEQK, peptide start residue: 1054)	0.596
15	UniProt Q9D7S7 (peptide sequence: VVASDKETYELR, peptide start residue: 96)	-0.06
16	UniProt Q9D8M7 (peptide sequence: VIPNALCGICLK, peptide start residue: 373)	-0.176
17	UniProt Q9D2R8 (peptide sequence: SPLSEYALR, peptide start residue: 2)	-0.175
